Series [1] deals with T1, Prm1 ZF domain (Pichia pastoris (Komagataella pastoris)) (UniProt C4R754).
T1 sequence (looked up, limits assumed): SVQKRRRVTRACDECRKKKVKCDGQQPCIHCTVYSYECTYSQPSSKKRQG
Kind of series: EMSA. As to conditions: EMSA: 50 mM Tris-HCl pH 8.0, 50 mM NaCl, 1 mM DTT, 0.05% NP-40, 50 ug/ml poly[d(I-C)], 5% glycerol, 30 min at 4 C; about 30 nM probe, 0-1 uM protein; recombinant protein; protein details: His6; label: Cy5 (5' of forward primer); probe letters rebuilt from the primers and the genome. (In general: In EMSA bound probe runs differently from free probe, usually more slowly.)

The target in series [2] is T2, Mit1 ZF domain (Pichia pastoris (Komagataella pastoris)) (UniProt C4R5Q1).
T2 sequence (looked up): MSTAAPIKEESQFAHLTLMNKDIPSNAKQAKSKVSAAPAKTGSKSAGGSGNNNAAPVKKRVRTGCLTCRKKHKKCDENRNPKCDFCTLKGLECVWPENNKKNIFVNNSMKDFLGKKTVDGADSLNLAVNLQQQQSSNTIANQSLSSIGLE
Kind of series: EMSA. The conditions noted are these: EMSA: 50 mM Tris-HCl pH 8.0, 50 mM NaCl, 1 mM DTT, 0.05% NP-40, 50 ug/ml poly[d(I-C)], 5% glycerol, 30 min at 4 C; about 30 nM probe, 0-1 uM protein; recombinant protein; residues 1-150; protein details: His6; label: Cy5 (5' of forward primer); probe letters rebuilt from the primers and the genome.

For some assays here: Negatives hold for the conditions tested. For some assays here: At least one verdict rests on a figure or table, not on a statement of the authors. Protein sequences can lack the tags named with them.

As to “GAGGGTGCGGTGGTGGGGGAATAAGCAGAACTGTAGATTTGACCAATCATCGTCACGTCTTACATCACAGAACGGGGGTACAGAAAGGGAATGAACGTAGAAGTGGAGTGAGGAGAGGAGAGGAGGAAGAGCGAGCAGATTAATTAGATAAAAACCACCCCTCCAAATCTGTTATTGTGTATCAAGTTTACGATTTTTCTCCTCCTTCAATCTCGCTCGCTGGCCAATGTCTGTTATCCTCCGTCCATGGGTTCTTCCCGTTCCGCTCTATCCGATAAGAGGTTGGCTTCCGAGAAGGTTGGTAGTTGGAATGACGTACAAAATGTACAACAAAGCAGATGTTGTTTAGC (double strand) [PMIT1-C]”, the binding result in series [1] is reported as “binds”. Take “GATAGCACTCTGGATTGATCAGAAACTTCATATCCGGAGACAGATACTTGTCTGTCTTGCATATGGGGCAATATTCTTCAGTATCCATCCGATGATTACGATTAGTATTAGGTTGATGAATAATCCATAATGGTCCCCTGATGGAATATGCTCGCGAAGA (double strand) [PPRM1-A]”: in series [2], the binding result is reported as “no binding”.

For the origin of these results see PMC4813576, “Mit1 Transcription Factor Mediates Methanol Signaling and Regulates the Alcohol Oxidase 1 (AOX1) Promoter in Pichia pastoris*”.
